Literature values, collected in US20110020272A1, “COMBINATION THERAPY FOR TREATING HEPATITIS VIRAL INFECTION” (priority 2009, published 2011).
At least one structure is not confirmed: it was looked up by name or label, or the drawing left a doubt.

How the values were obtained:
proteasome = settings: cited from earlier work
HCV genotype 1 [1] = settings: first 2 days of monotherapy; previous non response to interferon based treatment; cited from earlier work
HCV genotype 1 [2] = settings: vs standard of care control arm, cited from earlier work

Row | SMILES | concentrations inhibiting the proteasome (proteasome) | decline of HCV RNA (HCV genotype 1 [1]) [log 10 IU/mL] | sustained virologic response rate, PROVE2 (HCV genotype 1 [2]; telaprevir arm: PEG-interferon alpha-2a/ribavirin/telaprevir 12 weeks then PEG-interferon/ribavirin 12 weeks) [%] | sustained virologic response rate, PROVE1 (HCV genotype 1 [2]; telaprevir arm: PEG-interferon alpha-2a/ribavirin/telaprevir 12 weeks then PEG-interferon/ribavirin 36 weeks) [%]
1 | CC1=C(O)C(=O)C=C2C1=CC=C1[C@@]2(C)CC[C@@]2(C)[C@@H]3C[C@](C)(C(=O)O)CC[C@]3(C)CC[C@]12C [celastrol] | low micromolar concentrations | – | – | –
2 | CCC[C@H](NC(=O)[C@@H]1[C@H]2CCC[C@H]2CN1C(=O)[C@@H](NC(=O)[C@@H](NC(=O)c1cnccn1)C1CCCCC1)C(C)(C)C)C(=O)C(=O)NC1CC1 [telaprevir] | – | 3 | 69 | 67
